In publication PMC6280245:
No constants are given. Whether binding was seen depends on the method and setting. Binding seen in cells or lysates may run through a third protein. Here binding means that the protein was enriched with, or labelled near, the bait; the list need not be complete.

T1: mouse Nucleoredoxin Cys208Ser (mouse) (UniProt P97346)
T1 sequence: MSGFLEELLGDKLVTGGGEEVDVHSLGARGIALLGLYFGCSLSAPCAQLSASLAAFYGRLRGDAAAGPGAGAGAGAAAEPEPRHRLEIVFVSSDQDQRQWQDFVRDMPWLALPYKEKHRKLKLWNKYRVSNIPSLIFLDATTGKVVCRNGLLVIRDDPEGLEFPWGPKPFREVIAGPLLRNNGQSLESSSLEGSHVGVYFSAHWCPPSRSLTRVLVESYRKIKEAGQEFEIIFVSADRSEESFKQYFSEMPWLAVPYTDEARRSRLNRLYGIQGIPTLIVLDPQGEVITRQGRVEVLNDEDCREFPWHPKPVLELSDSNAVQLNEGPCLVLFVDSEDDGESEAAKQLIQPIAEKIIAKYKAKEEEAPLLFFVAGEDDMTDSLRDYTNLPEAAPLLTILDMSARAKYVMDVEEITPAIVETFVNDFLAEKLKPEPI


target: T1, mouse Nucleoredoxin Cys208Ser (mouse); assay: affinity purification with mass spectrometry; intermediate trapping: mNrx Cys208Ser coupled to CNBr-activated sepharose and reduced with 10 mM DTT; mouse brain extract (Black 6 C57J mice, NP40 lysis buffer) 2 h at 4°C; washed with 100 mM Tris, 300 mM NaCl, pH 8 and TE buffer; trapped proteins (mixed disulfide) eluted with 10 mM DTT and 10 mM TCEP; only the target purified

Binder | binding
Ran-binding protein 3 (mouse) (protein, UniProt Q9CT10 1-491) MADLANEEKPAVAPSVFVFQKDKGQKRSAGSSSPEAGEDSDHEDGNYCPPVKRERTSSLTHSEEKSSGFRLKPPTLIHGQAPSAGLPSQKPREQQRGVLRPAVLQAPQPKVLSQTVPSSGTNGVSMPADCTGPATSVSPENLTQRSPSESAEETHTLEEKVPQKTPHGTSEEGHCEEEQAAPQAFVFGQNLRDRVKLMNENASVADVDSAAHPSSETPSATNYFLQYISSSADNATHSADNSTKFVFGQNMSERVLSPPKLNEANSDTSRETTHAQSGSESSSQEAAPKKESLAESAAAYTKATAWTCLLEKVEVITGEEAESNVLQIQCKLFVFDKTSQSWVERGRGLLRLNDMASTDDGTLQSRLVMRTQGSLRLILNTKLWAQMQMDKASEKSIRITATDAEDQGVKVFLISASSKDTGQLYAALHHRILALRSRAEQEQEAKAPPPEPGATRATEEEDSDEDAVLAPSGVTGAGTGDEGDGQAPGST | binds
Arginine-tRNA ligase, cytoplasmic (mouse) (protein, UniProt Q9D0I9 1-660) MDGLVAQCSARLLQQEREIKALTAEIDRLKNCGCLEASPSLEQLREENLKLKYRLNILRRSLQEERRKPTKNMININSRLQEVFGCAIRAAYPDLENPPLIVTPSQQPKFGDYQCNSAMGISQMLKAKEQKVSPREIAENITKHLPNNKYIDKVEIAGPGFINVHLRKDFVSEQLTSLLVNGVQLPVLGDKEKVIVDFSSPNIAKEMHVGHLRSTIIGESMSRLFEFAGYDVLRLNHVGDWGTQFGMLIAHLQDKFPDYLTVSPPIGDLQAFYKESKKRFDADEEFKKRAYQCVVLLQSKNPDIMKAWNLICDVSREEFKKIYDALDITLIERGESFYQDRMKDIVKEFEDKGFVQVDDGRKIVFVPGCSVPLTIVKSDGGYTYDTSDLAAIKQRLFEEKANKIIYVVDNGQAIHFQTIFAAAQMIGWYDPKVTLVTHVGFGVVLGEDKKKFKTRSGETVRLMDLLEEGLKRSMDKLKEKERDKVLTEEELKAAQTSVAYGCIKYADLSHNRLNDYIFSFDKMLDDRGNTAAYLLYAFTRIRSIARLANIDEAMLQRAARETKIILDHEKEWKLGRCILRFPEILQKILDDLFLHTLCDYIYELATTFTEFYDSCYCVEKDRQTGKVLKVNMWRMLLCEAVAAVMAKGFDILGIKPVQRM | binds
Septin-7 (mouse) (protein, UniProt O55131 1-436) MSVSARSAAAEERSVNCGTMAQPKNLEGYVGFANLPNQVYRKSVKRGFEFTLMVVGESGLGKSTLINSLFLTDLYSPEYPGPSHRIKKTVQVEQSKVLIKEGGVQLLLTIVDTPGFGDAVDNSNCWQPVIDYIDSKFEDYLNAESRVNRRQMPDNRVQCCLYFIAPSGHGLKPLDIEFMKRLHEKVNIIPLIAKADTLTPEECQQFKKQIMKEIQEHKIKIYEFPETDDEEENKLVKKIKDRLPLAVVGSNTIIEVNGKRVRGRQYPWGVAEVENGEHCDFTILRNMLIRTHMQDLKDVTNNVHYENYRSRKLAAVTYNGVDNNKNKGQLTKSPLAQMEEERREHVAKMKKMEMEMEQVFEMKVKEKVQKLKDSEAELQRRHEQMKKNLEAQHKELEEKRRQFEEEKANWEAQQRILEQQNSSRTLEKNKKKGKIF | binds

The next lines start with the values.

binding | Binder
binds | Thioredoxin reductase 1, cytoplasmic (mouse) (protein, UniProt Q9JMH6 1-613) MPVDDCWLYFPASRGRTFVQTVWVAPTCPNCCWFPGFLPPVPRPPHVPRVLLRGPRGAVLPASRPSKTLPSSSQTPCPTDPCICPPPSTPDSRQEKNTQSELPNKKGQLQKLPTMNGSKDPPGSYDFDLIIIGGGSGGLAAAKEAAKFDKKVLVLDFVTPTPLGTRWGLGGTCVNVGCIPKKLMHQAALLGQALKDSRNYGWKVEDTVKHDWEKMTESVQSHIGSLNWGYRVALREKKVVYENAYGRFIGPHRIVATNNKGKEKIYSAERFLIATGERPRYLGIPGDKEYCISSDDLFSLPYCPGKTLVVGASYVALECAGFLAGIGLDVTVMVRSILLRGFDQDMANKIGEHMEEHGIKFIRQFVPTKIEQIEAGTPGRLRVTAQSTNSEETIEGEFNTVLLAVGRDSCTRTIGLETVGVKINEKTGKIPVTDEEQTNVPYIYAIGDILEGKLELTPVAIQAGRLLAQRLYGGSNVKCDYDNVPTTVFTPLEYGCCGLSEEKAVEKFGEENIEVYHSFFWPLEWTVPSRDNNKCYAKIICNLKDDERVVGFHVLGPNAGEVTQGFAAALKCGLTKQQLDSTIGIHPVCAEIFTTLSVTKRSGGDILQSGCUG
binds | Synaptic vesicle membrane protein VAT-1 homolog (mouse) (protein, UniProt Q62465 1-406) MSAEREAAEAATVAAATEAGAETGTGAGEGAPSQPPTVEVASDPQPPPAPEASASASAPPLRCLVLTGFGGYDKVKLQSRPAVPPAPGPGQLTLRVRACGLNFADLMGRQGLYDRLPPLPVTPGMEGAGVVVAVGEGVGDRKAGDRVMVLNRSGMWQEEVTVPSAQTFLMPEAMTFEEAAALLVNYITAYMVLFDFGNLRPGHSVLVHMAAGGVGMAALQLCRTVENVTVFGTASASKHEVLKENGVTHPIDYHTTDYVDEIKKISPKGVDIVMDPLGGSDTAKGYHLLKPMGKVVTYGMANLLTGPKRNLMAMARTWWNQFSVTALQLLQANRAVCGFHLGYLDGEVELVNSVVTRLVALYNQGHIKPRIDSVWPFEKVADAMKQMQEKKNIGKVLLVPGPEKET
